From US20140329706A1, “AFFINITY TAGS, AND RELATED AFFINITY LIGANDS, ENGINEERED PROTEINS, MODIFIED SUPPORTS, COMPOSITIONS, METHODS AND SYSTEMS” (CALIFORNIA INSTITUTE OF TECHNOLOGY, priority 2013, published 2014) come the findings set out here.

Protein sequences, listed by entry. Tags and fused reporters are not part of them. Chains listed by the source or under a name are the forms on record and can include a tag or linker. Residues count along the entry.
PDZ2 tag-MBP (Q62108, residues 160-246): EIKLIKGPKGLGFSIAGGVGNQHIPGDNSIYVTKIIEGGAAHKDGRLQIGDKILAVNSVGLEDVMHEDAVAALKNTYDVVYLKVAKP
PDZ3 domain of PSD-95 (Q62108, residues 313-393): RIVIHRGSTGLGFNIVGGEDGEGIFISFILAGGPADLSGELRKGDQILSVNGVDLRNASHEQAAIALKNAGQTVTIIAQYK
UniProt Q792Q4: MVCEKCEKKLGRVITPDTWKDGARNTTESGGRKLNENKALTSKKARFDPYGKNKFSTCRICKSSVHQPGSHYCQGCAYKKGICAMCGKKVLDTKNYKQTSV

No constants are given. Whether binding was seen depends on the method and setting. Some results given as binding are weak or reduced against the parent protein; the word gives no strength.

Test [1] deals with PDZ3 domain of PSD-95 (UniProt Q62108). The test can be described thus: affinity chromatography on PSD-95 PDZ3 resin with 0 or 5 mM TCEP, YKQTSV peptide elution, SDS-PAGE.
Test [2] has as its target T1, NR2B (GluN2B) peptide ligand ….
T1 sequence (peptide): GAGSSIESDV
The test is described as follows: affinity chromatography on … peptide resin, SIESDV peptide elution, SDS-PAGE.

For “CRIPT (Rattus norvegicus, AA 1-101) (from UniProt Q792Q4 1-101)”, the binding result in test [1] is given as “binds”. For the substance “DasherGFP with N-terminal PSD-95 PDZ2 domain tag (Type C) (from UniProt Q62108 160-246)”, the binding result in test [2] is recorded as “binds”. Still for that read-out and setting: the entry for “LacZ with N-terminal PSD-95 PDZ2 domain tag (Type C) (from UniProt Q62108 160-246)” is “binds”; for “MBP-PDZ2 tag (from UniProt Q62108 160-246)” it is “binds”. As for “MBP-PDZ2 tag-GST (from UniProt Q62108 160-246)”, the binding result in test [2] is “binds”. Consider “PDZ2 domain of PSD-95 (from UniProt Q62108 160-246)”, for which the binding entry in test [2] is “binds”.

On to “PDZ2 tag-MBP (from UniProt Q62108 160-246)”, for which, in test [2], the binding result is on record as “binds”.
